Some results were stated once for a whole list of compounds, not compound by compound. At least one compound was matched to its structure with a doubt left.
Experiments:
PKC-θ = target: T1, PKC-θ (Homo sapiens, UniProt Q04759); experiment: PKC-EGFP plasma membrane translocation in transfected HeLa cells; format: cell-based; settings: 500, 50 and 5 nM, 1 h treatment
T1 construct: expressed in transfected cells; host or cells: HeLa cells, transient transfection with Lipofectamine 2000; vectors generated in house

The chains behind the UniProt entries cited, without tags or fusion partners. Where a name states a change or a piece, a line headed by the entry shows the natural chain unless it says otherwise.
UniProt Q04759: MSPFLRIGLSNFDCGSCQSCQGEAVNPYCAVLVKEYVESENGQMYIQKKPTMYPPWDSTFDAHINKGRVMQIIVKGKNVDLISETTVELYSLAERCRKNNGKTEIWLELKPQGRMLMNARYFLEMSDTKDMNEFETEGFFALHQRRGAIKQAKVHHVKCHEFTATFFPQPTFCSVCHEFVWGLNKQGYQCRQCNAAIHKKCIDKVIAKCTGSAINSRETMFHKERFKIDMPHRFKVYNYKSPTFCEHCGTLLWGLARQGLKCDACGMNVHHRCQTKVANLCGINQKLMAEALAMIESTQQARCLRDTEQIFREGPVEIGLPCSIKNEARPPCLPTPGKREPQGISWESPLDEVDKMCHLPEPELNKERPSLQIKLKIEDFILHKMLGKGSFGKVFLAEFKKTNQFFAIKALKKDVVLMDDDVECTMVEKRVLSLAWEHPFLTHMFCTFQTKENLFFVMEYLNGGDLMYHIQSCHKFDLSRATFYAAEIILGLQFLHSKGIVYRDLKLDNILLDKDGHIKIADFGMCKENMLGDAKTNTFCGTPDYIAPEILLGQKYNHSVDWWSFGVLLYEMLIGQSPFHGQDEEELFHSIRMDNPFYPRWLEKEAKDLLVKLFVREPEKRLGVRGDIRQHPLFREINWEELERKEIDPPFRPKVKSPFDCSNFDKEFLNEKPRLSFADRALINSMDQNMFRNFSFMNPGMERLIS

B16-OVA cells = experiment: HMGB1 release assay (ELISA); format: cell-based, mouse; settings: 120 minutes
Protocol: A431 (human epidermoid carcinoma), MM649 (human melanoma) and B16-OVA (B16-F10 mouse melanoma cell line stably transfected with chicken ovalbumin) were cultured in RPMI-1640, 10% FCS (complete medium) at 37° C., 5% CO2 in a humidified incubator. BMDCs were cultured in R10 media (RPMI, 10% FCS, 2 mM glutamine, 50 μM beta-mercaptoethanol, Pen/Strep). All cell lines used in this study were confirmed as mycoplasma negative using MycoAlert (Lonza). STR profiling was also performed to confirm the identity of the human cell lines used.
Cell lines (A431, MM649 and B16-OVA) were plated into T75 cm^2 flasks (Nunc) in 10 ml of complete media and cultured at 37° C., 5% CO2 until they reached 90% confluency. Compounds 1, 2, 3 and 4 were diluted in 5 ml of identical media to a final concentration of 500 and 300 μM and then administered to the cells. Several flasks were prepared such that a kinetic curve of HMGB1 release in response to drug treatment could be established. Ethanol only controls were also generated. At the required timepoint, media was removed from the flask into a 10 ml polypropylene tube that was placed on ice for 5 mins. Cell culture supernatants were centrifuged at 1,200 rpm for 4 mins to remove cellular debris, after which 4.5 ml of supernatant was inserted into a concentrator spin column (Amicon® Ultra 50 kDa cut-off membrane, Merck) to remove FCS. The flow through from this column was then inserted into another concentrator column (Amicon® Ultra 10 kDa cut-off membrane, Merck) and centrifuged at 3,500 rpm to concentrate HMGB1 prior to assay via ELISA (SEA399Hu/SEA399Mu, Cloud-Clone Corp). OD450 nm values were determined using a Hybrid Synergy H4 plate reader (BioTek). Absorbance values from drug treated samples were normalized to vehicle treated samples to determine the fold increase in HMGB1 release in response to epoxytigliane treatment.

| Structure (SMILES) | PKC-θ activation (plasma membrane translocation) (PKC-θ) | fold increase in HMBG1 release, normalised to vehicle treated cells (B16-OVA cells) [fold] |
| --- | --- | --- |
| CCCCCCCCCCCCCC(=O)OC1C(C)C2(O)C(C3OC3(CO)C(O)C3(O)C(=O)C(C)=CC32)C2C(C)(C)C12OC(C)=O (stereo not shown) [Compound 7, 12-myristoyl-13-acetyloxy-6,7-epoxy-4,5,9,12,13,20-hexahydroxy-1-tiglien-3-one] | activate PKC-θ (to differing extents) | – |
| C/C=C(\C)C(=O)O[C@@H]1[C@@H](C)[C@@]2(O)[C@H]([C@@H]3C(C)(C)[C@]13OC(=O)[C@@H](C)CC)[C@@H]1O[C@]1(CO)[C@@H](O)[C@]1(O)C(=O)C(C)=C[C@H]12 [Compound 1, 12-tigloyl-13-(2-methylbutanoyl)-6,7-epoxy-4,5,9,12,13,20-hexahydroxy-1-tiglien-3-one] | activate PKC-θ (to differing extents) | – |
| CCCCCCCCCCCCCC(=O)OC1C(C)C2(O)C(C3OC3(CO)C(O)C3(O)C(=O)C(C)=CC32)C2C(C)(C)C12OC(=O)C(C)CC (stereo not shown) [Compound 5, 12-myristoyl-13-(2-methylbutanoyl)-6,7-epoxy-4,5,9,12,13,20-hexahydroxy-1-tiglien-3-one] | activate PKC-θ (to differing extents) | – |
| CCC(C)C(=O)OC1C(C)C2(O)C(C3OC3(CO)C(O)C3(O)C(=O)C(C)=CC32)C2C(C)(C)C12OC(=O)C(C)CC (stereo not shown) [Compound 2, 12,13-di-(2-methylbutanoyl)-6,7-epoxy-4,5,9,12,13,20-hexahydroxy-1-tiglien-3-one] | activate PKC-θ (to differing extents) | ≥ 2 |
| CCCCCC(=O)OC1C(C)C2(O)C(C3OC3(CO)C(O)C3(O)C(=O)C(C)=CC32)C2C(C)(C)C12OC(=O)C(C)CC (stereo not shown) [Compound 3, 12-hexanoyl-13-(2-methylbutanoyl)-6,7-epoxy-4,5,9,12,13,20-hexahydroxy-1-tiglien-3-one] | activate PKC-θ (to differing extents) | ≥ 2 |
| CCCCCC(=O)OC1C(C)C2(O)C(C3OC3(CO)C(O)C3(O)C(=O)C(C)=CC32)C2C(C)(C)C12OC(=O)CCCCC (stereo not shown) [Compound 4, 12,13-dihexanoyl-6,7-epoxy-4,5,9,12,13,20-hexahydroxy-1-tiglien-3-one] | activate PKC-θ (to differing extents) | ≥ 2 |
| CC=C(C)C(=O)OC1C(C)C2(O)C(C3OC3(COC(C)=O)C(O)C3(O)C(=O)C(C)=CC32)C2C(C)(C)C12OC(=O)C(C)CC (stereo not shown) [Compound 6, 12-tigloyl-13-(2-methylbutanoyl)-6,7-epoxy-4,5,9,12,13-pentahydroxy-20-acetyloxy-1-tiglien-3-one] | activate PKC-θ (to differing extents) | – |
